Laboratory results: patent US20240389593A1, “HETEROCYCLIC COMPOUND AND USE THEREOF” (KUMIAI CHEMICAL INDUSTRY CO., LTD., priority 2021, published 2024)
Some entries share one result that the patent states for a list of compounds.

What was measured:
Assay type in all cases: in vivo
[1] = tested on: Plutella xylostella; test: Test on insecticidal activity in Plutella xylostella (cabbage leaf dip); conditions: 500 ppm active ingredient (wettable powder diluted with water), cabbage leaves dipped, second-instar larvae, 25° C., 6 days after treatment
Protocol: (§1) A wettable powder prepared according to formulation example 2 was diluted with water to a concentration of 500 ppm as the active ingredient. Some cabbage leaves were dipped in the drug solution, air-dried, and then placed in a plastic cup. Ten second-instar larvae of Plutella xylostella were put on the treated leaves, and the cup was covered with a lid. Then, it was placed in a room at constant temperature of 25° C. The number of dead insects was investigated at 6 days after treatment. Mortality rate was calculated using the formula 1. The number of replication was one in each test.

[2] = tested on: Helicoverpa armigera; test: Test on insecticidal activity in Helicoverpa armigera (cabbage leaf dip); conditions: 500 ppm active ingredient (wettable powder diluted with water), cabbage leaves dipped, hatching larvae, 25° C., 6 days after treatment
Protocol: as §1, with “Five hatching” for “Ten second-instar”, “Helicoverpa armigera” for “Plutella xylostella”, “after the” for “after”, “two” for “one”

[3] = tested on: Nilaparvata lugens; test: Test on insecticidal activity in Nilaparvata lugens (rice sprout dip); conditions: 500 ppm active ingredient (wettable powder diluted with water), rice sprouts dipped, second-instar larvae, 25° C., 6 days after treatment
Protocol: A wettable powder prepared according to formulation example 2 was diluted with water to a concentration of 500 ppm as the active ingredient. Some rice sprouts were dipped in the drug solution and placed in a plastic cup. Ten second-instar larvae of Nilaparvata lugens were put on the treated leaves, and the cup was covered with a lid. Then, it was placed in a constant room temperature of 25° C. The number of dead insects was investigated at 6 days after the treatment. Mortality rate was calculated using the formula 1. The number of replication was one in each test.

[4] = tested on: Aphis gossypii; test: Test on pest control effect in Aphis gossypii (cucumber nursery plant dip); conditions: 500 ppm active ingredient (wettable powder diluted with water), cucumber nursery plants inoculated with larvae dipped, 25° C., 3 days after treatment
Protocol: [Test example 4] Test on pest control effect in Aphis gossypii A wettable powder prepared according to formulation example 2 was diluted with water to a concentration of 500 ppm as the active ingredient. Some nursery plant of cucumber previously inoculated with larvae of Aphis gossypii were dipped in the drug solution and air-dried. The treated nursery plants of cucumber were placed in a room at constant temperature of 25° C. The number of surviving insects was counted at 3 days after the treatment. Mortality rate was calculated using the formula 1. The number of replication was one in each test.

Measured: mortality

CCS(=O)(=O)c1c(-n2cc(OCC(F)(F)C(F)(F)C(F)(F)F)cn2)nc2ccccn12 [A-0003]
≥ 90%: [1] | [2] | [3] | [4]

CC[S+]([O-])c1c(-n2cc(OCC(F)(F)C(F)C(F)(F)F)cn2)nc2ccccn12 (centres unmarked) [A-0005]
≥ 90%: [1] | [2] | [3] | [4]

CCS(=O)(=O)c1c(-n2cc(OCC(F)(F)C(F)C(F)(F)F)cn2)nc2ccccn12 (centres unmarked) [A-0006]
≥ 90%: [1] | [2] | [3] | [4]

CCS(=O)(=O)c1c(-n2cc(OCC(F)(F)C(F)(F)C(F)(F)F)cn2)nc2ccc(Cl)cn12 [A-0038]
≥ 90%: [1] | [2] | [3] | [4]

CCS(=O)(=O)c1c(-n2cc(OCC(F)(F)C(F)(F)C(F)(F)F)cn2)nc2ccc(C)cn12 [A-0044]
≥ 90%: [1] | [2] | [3] | [4]

CCS(=O)(=O)c1c(-n2cc(OCC(F)(F)C(F)(F)C(F)(F)F)cn2)nc2ccc(C3(C#N)CC3)cn12 [A-0058]
≥ 90%: [1] | [2] | [3] | [4]

CCS(=O)(=O)c1c(-n2cc(OCC(F)(F)C(F)(F)C(F)(F)F)cn2)nc2ccc(N=S(C)(C)=O)cn12 [A-0183]
≥ 90%: [1] | [2] | [3] | [4]

CCS(=O)(=O)c1c(-n2cc(OCC(F)(F)C(F)C(F)(F)F)cn2)nc2cc(C(F)(F)F)ccn12 (centres unmarked) [A-0274]
≥ 90%: [1] | [2] | [4]

CCS(=O)(=O)c1c(-n2cc(OCC(F)(F)C(F)F)cn2)nc2ccc(C(F)(F)F)cn12 [A-0423]
≥ 90%: [1] | [2] | [4]

CCS(=O)(=O)c1c(-n2cc(OCC(F)(F)C(F)(F)C(F)(F)C(F)F)cn2)nc2ccc(C(F)(F)F)cn12 [A-0426]
≥ 90%: [1] | [2] | [4]

CCS(=O)(=O)c1c(-n2cc(OCC(F)(F)C(F)(F)C(F)(F)F)cn2)nc2ccc(C#CC3CC3)cn12 [A-0584]
≥ 90%: [1] | [2] | [3] | [4]

CCS(=O)(=O)c1c(-n2cc(OCC(F)(F)C(F)(F)C(F)(F)F)cn2)nc2ccc(-c3cncnc3)cn12 [A-0589]
≥ 90%: [1] | [2] | [4]

CCS(=O)(=O)c1c(-n2cc(OCC(F)(F)C(F)(F)C(F)(F)F)cn2)nc2ccc(C3=CCOCC3)cn12 [A-0591]
≥ 90%: [1] | [2] | [4]
